Experimental data published in publication PMC4587843, “Vascular Smooth Muscle Cells Stimulate Platelets and Facilitate Thrombus Formation through Platelet CLEC-2: Implications in Atherothrombosis” (PLoS ONE, 2015).
These are yes or no findings as the source states them, for the method shown. Some entries that bind do so weakly or less than the wild type. Sequences can lack the tags named with a protein.

Protein sequences, listed by entry. Tags and fused reporters are not part of them. Residues count along the entry.
UniProt Q9P126, residues 55-229: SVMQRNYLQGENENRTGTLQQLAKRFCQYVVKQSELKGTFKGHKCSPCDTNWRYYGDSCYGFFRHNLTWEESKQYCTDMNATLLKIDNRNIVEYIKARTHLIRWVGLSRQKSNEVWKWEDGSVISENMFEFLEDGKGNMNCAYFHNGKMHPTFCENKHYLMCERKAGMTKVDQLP

Tests used:
[1] = target: recombinant extracellular domain of human CLEC-2 expressed as a dimeric rabbit immunoglobulin Fc domain fusion protein (human) (UniProt Q9P126); test: SPR; data not shown; analytes perfused over recombinant CLEC-2 (hCLEC-2-rFc2); both purified
[2] = target: T1, GST-tagged S100A13 recombinant protein (UniProt Q99584); test: platelet adhesion assay; coverslips coated with 100 ug/mL recombinant S100A13-GST, blocked with BSA; washed murine platelets (WT or CLEC-2-deficient, 6 x 10^7/mL) seeded 30 min at room temperature; adherent platelets stained with TRITC-phalloidin and counted; only the target purified
T1 sequence: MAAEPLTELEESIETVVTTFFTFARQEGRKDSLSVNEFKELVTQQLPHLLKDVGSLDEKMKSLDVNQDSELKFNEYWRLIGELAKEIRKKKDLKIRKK

Row | Binder | binding [1] | binding [2]
1 | GST-tagged S100A13 recombinant protein (natural protein, UniProt Q99584 1-98, looked up, S100A13; also called S100A13-GST; recombinant S100A13-GST; source: bought: CycLex Co., Ltd. (Japan)) MAAEPLTELEESIETVVTTFFTFARQEGRKDSLSVNEFKELVTQQLPHLLKDVGSLDEKMKSLDVNQDSELKFNEYWRLIGELAKEIRKKKDLKIRKK | binds | 
2 | native CLEC-2 on the surface of murine platelets (receptor, UniProt Q9JL99 1-229) MQDEDGYITLNIKPRKQALSSAEPASSWWRVMALVLLISSMGLVVGLVALGIMSVTQQKYLLAEKENLSATLQQLAKKFCQELIRQSEIKTKSTFEHKCSPCATKWRYHGDSCYGFFRRNLTWEESKQYCTEQNATLVKTASQSTLDYIAERITSVRWIGLSRQNSKKDWMWEDSSVLRKNGINLSGNTEENMNCAYLHNGKIHPASCKERHYLICERNAGMTRVDQLL |  | binds
